Measured data: PubChem BioAssay AID1224830 (NIAID, 2016)
Shown is one part, drawn at random, of about 18,000 reagents. Of all reagents, about 2,900 (16%) were called active. 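Calls are made per well; low scores hint the gene aids the LPS response, high scores that it dampens it.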 Entries without a mark were called inactive. Repeated entries: four replicate wells of each siRNA pool.

- Screen: 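Regulators of TLR4 signalling towards TNF-alpha in macrophage-like cells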 (primary screen)
- Cell system: human THP-1 monocytic leukaemia cells, TNF dual-luciferase reporter clone, PMA-differentiated to macrophage-like cells
- Knock-down reagent: siRNA pool against human genes, 50 nM
- Timing: LPS for 4 h, given about 3 days after siRNA transfection
- Conditions: bacterial LPS (TLR4 ligand), 10 ng/ml
- Measurement: 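TNF firefly reporter luminescence divided by renilla, normalised to the plate median, then turned into a robust z-score for each replicate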
- Scale: TNF reporter robust z-score: higher = stronger TNF reporter response to LPS
- Call rule: 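a well is active when its z-score exceeds 2.8 or falls below -1.5; control wells carry no call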

Against STAC3, the entry reads TNF reporter robust z-score -1.36.
STAC3 scored TNF reporter robust z-score -1.
With knock-down of STAC3, the screen gave TNF reporter robust z-score -0.84.
Against STAC3 the deposit lists TNF reporter robust z-score -0.74.
Silencing of PCBP2 gave: TNF reporter robust z-score -0.76.
After knock-down of PCBP2 the results were TNF reporter robust z-score 0.03.
Depletion of PCBP2 gave: TNF reporter robust z-score -0.12.
Silencing of PCBP2 gave: TNF reporter robust z-score -0.01.
Knock-down of FAM117A resulted in: TNF reporter robust z-score 1.13.
With knock-down of FAM117A, the record shows TNF reporter robust z-score -0.53.
After knock-down of FAM117A, the screen gave TNF reporter robust z-score -0.5.
Silencing of FAM117A resulted in: TNF reporter robust z-score -1.05.
Silencing of FBXO47 gave: TNF reporter robust z-score -1.05.
FBXO47 showed TNF reporter robust z-score 2.6.
With knock-down of FBXO47, the record shows TNF reporter robust z-score 1.96.
Against FBXO47, the values are TNF reporter robust z-score 2.63.
For PIM1, the values are TNF reporter robust z-score 0.18.
PIM1 showed TNF reporter robust z-score 0.09.
Depletion of PIM1 gave: TNF reporter robust z-score 0.59.
After knock-down of PIM1, the screen gave TNF reporter robust z-score 0.87.

Not a retest: entries from further up.
STAC3 — TNF reporter robust z-score: -0.74
PCBP2 — TNF reporter robust z-score: -0.76
